Patent US20200339670A1
These are yes or no findings as the source states them, for the method shown. Some binding calls cover weakened binding; strength is not graded here.

By UniProt entry, the sequences of proteins in these tests, tags left out. Residues count along the entry.
UniProt P05067, residues 672-713: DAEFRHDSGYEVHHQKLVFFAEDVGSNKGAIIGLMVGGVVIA
UniProt Q9ULZ3: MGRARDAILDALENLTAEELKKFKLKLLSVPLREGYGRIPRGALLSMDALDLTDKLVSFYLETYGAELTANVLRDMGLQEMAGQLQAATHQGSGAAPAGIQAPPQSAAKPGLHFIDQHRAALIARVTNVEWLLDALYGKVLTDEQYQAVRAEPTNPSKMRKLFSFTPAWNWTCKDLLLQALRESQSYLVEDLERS

Experiments:
[1] = molecular target: Aβ in brains of Alzheimer patients (human) (UniProt P05067); assay: immunoprecipitation from human brain homogenates
[2] = molecular target: Aβ in brains of Alzheimer patients (human) (UniProt P05067); assay: immunoprecipitation of ASC, Western blot detection of Aβ
[3] = molecular target: Aβ in brains of Alzheimer patients (human) (UniProt P05067); assay: immunohistochemistry of brain sections of AD cases

Measured: binding

ASC (ASC specks) in brains of Alzheimer patients (from UniProt Q9ULZ3 1-195)
binds: all assays above
